PMC4587574
No constants are given. Whether binding was seen depends on the method and setting. In cells and extracts the contact can be indirect. For some assays here: Binding can be weak; no strength is given. Sequences can lack the tags named with a protein.

Key:
Test in all cases: co-IP; HEK293 cells co-transfected with Flag-HSP90, Flag-HSP70 or Flag-tagged HSP90 domain constructs and GFP-tagged PABPN1; lysates precipitated with anti-Flag antibody, blotted with anti-GFP
[1] = target: Flag-HSP90 (full-length) (mouse)
Flag-HSP70 (mouse) = target: Flag-HSP70 (mouse)
[2] = target: Flag-tagged HSP90 Δ233–439 (mouse)
[3] = target: Flag-tagged HSP90 N-terminal fragment (aa 1–232) (mouse)
[4] = target: Flag-tagged HSP90 (aa 1–439) (mouse)
[5] = target: Flag-tagged HSP90 (aa 1–620) (mouse)

Row | Binder | binding [1] | binding (Flag-HSP70 (mouse)) | binding [2] | binding [3] | binding [4] | binding [5]
1 | GFP-tagged A10-PABPN1 (protein, UniProt Q86U42 1-306) MAAAAAAAAAAGAAGGRGSGPGRRRHLVPGAGGEAGEGAPGGAGDYGNGLESEELEPEELLLEPEPEPEPEEEPPRPRAPPGAPGPGPGSGAPGSQEEEEEPGLVEGDPGDGAIEDPELEAIKARVREMEEEAEKLKELQNEVEKQMNMSPPPGNAGPVIMSIEEKMEADARSIYVGNVDYGATAEELEAHFHGCGSVNRVTILCDKFSGHPKGFAYIEFSDKESVRTSLALDESLFRGRQIKVIPKRTNRPGISTTDRGFPRARYRARTTNYNSSRSRFYSGFNSRPRGRVYRGRARATSWYSPY | binds | binds |  |  |  | 
2 | GFP-tagged A17-PABPN1 (protein, UniProt Q86U42 1-306) MAAAAAAAAAAAAAAAAAGAAGGRGSGPGRRRHLVPGAGGEAGEGAPGGAGDYGNGLESEELEPEELLLEPEPEPEPEEEPPRPRAPPGAPGPGPGSGAPGSQEEEEEPGLVEGDPGDGAIEDPELEAIKARVREMEEEAEKLKELQNEVEKQMNMSPPPGNAGPVIMSIEEKMEADARSIYVGNVDYGATAEELEAHFHGCGSVNRVTILCDKFSGHPKGFAYIEFSDKESVRTSLALDESLFRGRQIKVIPKRTNRPGISTTDRGFPRARYRARTTNYNSSRSRFYSGFNSRPRGRVYRGRARATSWYSPY | binds | binds | binds | no binding | binds | binds
